Reference: US12349973B2 (priority 2019, dated 2025)

Test system: pupil light response / muscarinic receptors within the iris
Parameters: species or system human
Conditions: in vivo

CN1[C@@H]2CC[C@H]1C[C@@H](OC(=O)C(CO)c1ccccc1)C2 (stereo partly shown) [atropine]
ratio of pupil velocity at 2x latency, post- to pre-treatment (V400post/V400pre): 65%
